No constants are given. Whether binding was seen depends on the method and setting. Binding seen in cells or lysates may run through a third protein. A result given as binding can be weak or reduced; the word gives no strength.

These results are taken from PMC9501056.

Test [1] concerns the target T1, BEI (Oryza sativa subsp. indica cv. IR36 (endogenous in developing seeds)) (UniProt Q01401).
T1 sequence: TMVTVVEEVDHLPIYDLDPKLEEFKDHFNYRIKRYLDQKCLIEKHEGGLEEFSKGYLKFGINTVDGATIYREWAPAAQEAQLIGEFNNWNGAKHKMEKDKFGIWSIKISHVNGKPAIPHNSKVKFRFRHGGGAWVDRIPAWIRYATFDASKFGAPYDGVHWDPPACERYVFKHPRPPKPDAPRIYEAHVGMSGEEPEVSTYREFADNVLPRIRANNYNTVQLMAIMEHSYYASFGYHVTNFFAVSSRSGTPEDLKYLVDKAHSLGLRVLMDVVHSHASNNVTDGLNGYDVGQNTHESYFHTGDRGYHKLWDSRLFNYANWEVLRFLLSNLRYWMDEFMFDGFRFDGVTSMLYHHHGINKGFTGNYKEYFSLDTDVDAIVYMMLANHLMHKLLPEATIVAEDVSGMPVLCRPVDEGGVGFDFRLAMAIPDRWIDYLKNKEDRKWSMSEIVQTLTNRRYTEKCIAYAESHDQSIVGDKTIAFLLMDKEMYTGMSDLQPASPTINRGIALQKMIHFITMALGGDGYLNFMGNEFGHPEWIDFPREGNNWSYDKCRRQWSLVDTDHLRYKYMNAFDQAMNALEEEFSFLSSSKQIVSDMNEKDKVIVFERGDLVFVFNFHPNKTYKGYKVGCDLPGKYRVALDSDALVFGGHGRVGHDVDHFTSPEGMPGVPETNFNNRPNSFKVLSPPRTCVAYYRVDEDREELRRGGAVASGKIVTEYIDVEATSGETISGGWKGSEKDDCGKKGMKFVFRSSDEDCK
As to the kind of experiment: co-IP; soluble proteins of developing seeds of WT (IR36) at 5 DAF incubated with isozyme-specific antibodies and protein A magnetic beads; washed with PBS pH 7.4; Western blotting.

Test [2] has as its target T1, BEI (Oryza sativa subsp. indica cv. IR36 (endogenous in developing seeds)). As to the kind of experiment: co-IP; soluble proteins of developing seeds of WT (IR36) at 10 DAF incubated with isozyme-specific antibodies and protein A magnetic beads; washed with PBS pH 7.4; Western blotting.
Test [3] has the same target. In words: co-IP; soluble proteins of developing seeds of the be2b mutant at 10 DAF incubated with isozyme-specific antibodies and protein A magnetic beads; washed with PBS pH 7.4; Western blotting.
Test [4] has as its target BEIIa (Oryza sativa subsp. indica cv. IR36 (endogenous in developing seeds)). As to the kind of experiment: co-IP; soluble proteins of developing seeds of WT (IR36) at 5 DAF incubated with isozyme-specific antibodies and protein A magnetic beads; washed with PBS pH 7.4; Western blotting. (In general: In western blotting, separated proteins are transferred to a membrane and probed.)

Test [5] concerns the target BEIIb (Oryza sativa subsp. indica cv. IR36 (endogenous in developing seeds)). Described as above.
The target in test [6] is BEIIa (Oryza sativa subsp. indica cv. IR36 (endogenous in developing seeds)). As to the kind of experiment: co-IP; soluble proteins of developing seeds of WT (IR36) at 15 DAF incubated with isozyme-specific antibodies and protein A magnetic beads; washed with PBS pH 7.4; Western blotting.
In test [7] the target is BEIIb (Oryza sativa subsp. indica cv. IR36 (endogenous in developing seeds)). The description is as above.
The target of test [8] is BEIIa (Oryza sativa subsp. indica cv. IR36 (endogenous in developing seeds)). As to the kind of experiment: co-IP; soluble proteins of developing seeds of WT (IR36) at 10 DAF incubated with isozyme-specific antibodies and protein A magnetic beads; washed with PBS pH 7.4; Western blotting.
Test [9] addresses BEIIb (Oryza sativa subsp. indica cv. IR36 (endogenous in developing seeds)). Described as above.
Test [10] concerns the target BEIIa (Oryza sativa subsp. indica cv. IR36 (endogenous in developing seeds)). As to the kind of experiment: co-IP; soluble proteins of developing seeds of the be2b mutant at 10 DAF incubated with isozyme-specific antibodies and protein A magnetic beads; washed with PBS pH 7.4; Western blotting.
Test [11] has the same target. In words: co-IP; soluble proteins of developing seeds of the be2b mutant at 15 DAF incubated with isozyme-specific antibodies and protein A magnetic beads; washed with PBS pH 7.4; Western blotting.
Test [12] has the same target. As to the kind of experiment: co-IP; soluble proteins of developing seeds of the be2b mutant at 5 DAF incubated with isozyme-specific antibodies and protein A magnetic beads; washed with PBS pH 7.4; Western blotting.

For the molecule “starch plastidial phosphorylase (enzyme)”, the binding entry in [1], in test [2] and in test [3] was “binds” each time.

Consider BEIIa (enzyme), for which, in test [3], the binding entry is given as “binds weakly”.

B1: SSIIa (enzyme, UniProt P0C586 17-810)
chain: ASSASRGGPRRGRVVGVAAPPALLYDGRAGRLALRAPPPPRPRPRRRDAGVVRRADDGENEAAVERAGEDDEEEEEFSSGAWQPPRSRRGGVGKVLKRRGTVPPVGRYGSGGDAARVRGAAAPAPAPTQDAASSKNGALLSGRDDDTPASRNGSVVTGADKPAAATPPVTITKLPAPDSPVILPSVDKPQPEFVIPDATAPAPPPPGSNPRSSAPLPKPDNSEFAEDKSAKVVESAPKPKATRSSPIPAVEEETWDFKKYFDLNEPDAAEDGDDDDDWADSDASDSEIDQDDDSGPLAGENVMNVIVVAAECSPWCKTGGLGDVAGALPKALARRGHRVMVVVPRYGDYAEAQDVGIRKYYKAAGQDLEVKYFHAFIDGVDFVFIDAPLFRHRQDDIYGGNRQEIMKRMILFCKAAVEVPWHVPCGGVPYGDGNLVFLANDWHTALLPVYLKAYYRDNGMMQYTRSVLVIHNIAYQGRGPVDEFPYMELPEHYLDHFKLYDPVGGEHANIFGAGLKMADRVVTVSPGYLWELKTTEGGWGLHDIIRENDWKMNGIVNGIDYREWNPEVDVHLQSDGYANYTVASLDSGKPRCKAALQRELGLEVRDDVPLIGFIGRLDGQKGVDIIGDAMPWIAGQDVQLVLLGSGRRDLEVMLQRFEAQHNSKVRGWVGFSVKMAHRITAGADVLVMPSRFEPCGLNQLYAMAYGTVPVVHAVGGLRDTVSAFDPFEDTGLGWTFDRAEPHKLIEALGHCLETYRKYKESWRGLQVRGMSQDLSWDHAAELYEEVLVKAKYQW
In the case of B1, the binding entry in test [4] is recorded as “binds weakly”; in test [5], “binds weakly”; in test [6], “binds”; in test [7] it was “binds”; in test [8] it was “binds weakly”; in test [9], “binds”. Further, the binding entry was “binds weakly” in test [10], “binds weakly” in test [11] and “binds” in test [12].

B2: SSI (enzyme, UniProt A2Y9M4 114-641)
chain: SEQESEIMDVKEQAQAKVTRSVVFVTGEASPYAKSGGLGDVCGSLPIALALRGHRVMVVMPRYMNGALNKNFANAFYTEKHIKIPCFGGEHEVTFFHEYRDSVDWVFVDHPSYHRPGNLYGDNFGAFGDNQFRYTLLCYAACEAPLILELGGYIYGQKCMFVVNDWHASLVPVLLAAKYRPYGVYRDARSVLVIHNLAHQGVEPASTYPDLGLPPEWYGALEWVFPEWARRHALDKGEAVNFLKGAVVTADRIVTVSQGYSWEVTTAEGGQGLNELLSSRKSVLNGIVNGIDINDWNPSTDKFLPYHYSVDDLSGKAKCKAELQEELGLPIRPDVPLIGFIGRLDYQKGIDLIKLAIPDLMRDNIQFVMLGSGDPGFEGWMRSTESGYRDKFRGWVGFSVPVSHRITAGCDILLMPSRFEPCGLNQLYAMQYGTVPVVHGTGGLRDTVENFNPFAEKGEQGTGWAFSPLTIEKMLWALRMAISTYREHKSSWEGLMKRGMSSDFTWDHAASQYEQIFEWAFMDQPYVM
For the molecule B2, the binding entry in test [4] is “binds weakly”; in test [5], “binds weakly”; in [6] it was “binds”; in test [7], “binds”; in test [8] it was “binds”; in test [9], “binds”. The binding entry in test [12] is “binds”.

B3: BEI (enzyme, UniProt Q01401 65-820)
chain: TMVTVVEEVDHLPIYDLDPKLEEFKDHFNYRIKRYLDQKCLIEKHEGGLEEFSKGYLKFGINTVDGATIYREWAPAAQEAQLIGEFNNWNGAKHKMEKDKFGIWSIKISHVNGKPAIPHNSKVKFRFRHGGGAWVDRIPAWIRYATFDASKFGAPYDGVHWDPPACERYVFKHPRPPKPDAPRIYEAHVGMSGEEPEVSTYREFADNVLPRIRANNYNTVQLMAIMEHSYYASFGYHVTNFFAVSSRSGTPEDLKYLVDKAHSLGLRVLMDVVHSHASNNVTDGLNGYDVGQNTHESYFHTGDRGYHKLWDSRLFNYANWEVLRFLLSNLRYWMDEFMFDGFRFDGVTSMLYHHHGINKGFTGNYKEYFSLDTDVDAIVYMMLANHLMHKLLPEATIVAEDVSGMPVLCRPVDEGGVGFDFRLAMAIPDRWIDYLKNKEDRKWSMSEIVQTLTNRRYTEKCIAYAESHDQSIVGDKTIAFLLMDKEMYTGMSDLQPASPTINRGIALQKMIHFITMALGGDGYLNFMGNEFGHPEWIDFPREGNNWSYDKCRRQWSLVDTDHLRYKYMNAFDQAMNALEEEFSFLSSSKQIVSDMNEKDKVIVFERGDLVFVFNFHPNKTYKGYKVGCDLPGKYRVALDSDALVFGGHGRVGHDVDHFTSPEGMPGVPETNFNNRPNSFKVLSPPRTCVAYYRVDEDREELRRGGAVASGKIVTEYIDVEATSGETISGGWKGSEKDDCGKKGMKFVFRSSDEDCK
In the case of B3, the binding result is “binds weakly” in test [4]; “binds weakly” in test [5]; “binds weakly” in [6]; “binds weakly” in test [7]; “binds” in test [8]; “binds” in test [9]. Also, the binding result in test [10] and in test [11] was “binds weakly” in each case.
